# Test results as given in PubChem BioAssay AID2551 (National Center for Advancing Translational Sciences (NCATS), 2010).
# Sequences of proteins named here, by UniProt entry; tags and fusion partners are left off. A change or cut given only in a name is not applied to a line headed by its entry.
# UniProt P51450: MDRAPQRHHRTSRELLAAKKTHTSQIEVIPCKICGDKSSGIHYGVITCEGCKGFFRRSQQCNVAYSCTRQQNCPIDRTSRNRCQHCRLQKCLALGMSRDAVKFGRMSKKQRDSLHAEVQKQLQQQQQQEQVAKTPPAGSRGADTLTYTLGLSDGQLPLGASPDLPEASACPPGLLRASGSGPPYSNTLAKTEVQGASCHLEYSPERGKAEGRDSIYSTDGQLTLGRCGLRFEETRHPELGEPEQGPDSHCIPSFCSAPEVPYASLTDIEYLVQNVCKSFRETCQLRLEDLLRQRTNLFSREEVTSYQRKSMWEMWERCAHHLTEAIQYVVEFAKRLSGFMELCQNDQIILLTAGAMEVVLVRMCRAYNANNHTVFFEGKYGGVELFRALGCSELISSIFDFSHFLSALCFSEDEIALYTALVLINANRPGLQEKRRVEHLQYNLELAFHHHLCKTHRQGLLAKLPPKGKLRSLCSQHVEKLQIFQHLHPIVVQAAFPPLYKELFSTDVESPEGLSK
# Values joined by “and” are separate entries in the source; they are usually repeats but may differ in a detail not shown here. Identical values can stand only once. The whole screen tested about 310,000 compounds, of which about 17,000 (5.5%) were called active. Inconclusive results, whose numbers are uncertain, are shown with a selection of clear calls. Calls follow the shape of the dose curve; as a rule, active = well fitted inhibition curve with a large enough effect; inconclusive = small, poorly fitted or top-dose-only effect, or effect the other way; inactive = no such curve, though single readings can be large or run the other way. Where the call is inconclusive, the potency comes from a doubtful curve fit.
# Molecular target: Nuclear receptor ROR-gamma (Mus musculus) (UniProt P51450)
# Experiment: qHTS for inhibitors of ROR gamma transcriptional activity; also: nearly all actives have a fitted effect of over 60% in size
# Conditions: Drosophila S2 Gal4-RORgamma UAS-luciferase reporter, 20 h; series mostly up to 53.6 µM
# Method in brief: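 Compounds are pin-transferred onto Drosophila Schneider cells expressing a copper-inducible Gal4–ROR gamma transactivation domain fusion. After 1 hr, copper sulfate is added to 700 uM final; luciferase is read 20 hr later.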
# Potency is read from the fitted curve at half-maximal effect.
row,Structure (SMILES),Potency
1,CNCC[C@H](Oc1ccc(C(F)(F)F)cc1)c1ccccc1,"inconclusive: 3.55 µM [inhibitor, partial curve, poor fit]"
2,O=c1c2ccccc2nc(-c2ccco2)n1-c1ccncc1,"inconclusive: 0.501 µM [inhibitor, partial curve]"
3,CCCCC1C(=O)NC(=S)NC1=O,inactive
4,CC[C@@H]1CN2CCc3cc(OC)c(OC)cc3[C@@H]2C[C@@H]1C[C@H]1NCCc2cc(OC)c(OC)cc21,active: 1.12 µM
5,CCc1c(C)nc(N)nc1N1N=C1SC,inactive
6,O=C(Nc1ccc(Cl)cc1)N1CC2CC(C1)c1cccc(=O)n1C2 (configuration not stated),inactive
7,S=C=Nc1cccc2ccccc12,active: 6.31 µM
8,CCOCCCn1c(N)c(C(=O)Nc2sc3c(c2C(=O)OC)CCCC3)c2nc3ccccc3nc21,"inconclusive: 22.4 µM [inhibitor, single point]"
9,Clc1ccc([C@@H]2C[C@H]3CC[C@@H]2N3)cn1,inactive
10,O=C1C(=O)c2ccccc2-c2ccccc21,active: 2 µM
11,O=C(Nc1ccc2nc(-c3cccs3)c(-c3cccs3)nc2c1)NC1CC1,"inconclusive: 12.6 µM [activator, single point]"
12,Cc1c(C=C2C(=O)NC(=O)NC2=O)c(=O)n(-c2ccccc2)n1C,inactive
13,CCOP(=S)(OCC)Oc1cc(C)nc(N(CC)CC)n1,inactive
14,Cc1nn(C(C)(C)C)c(C)c1/C=N/OC(=O)Nc1ccc(Cl)cc1,"inconclusive: 0.0891 µM [inhibitor, full curve, poor fit]"
15,Cc1nc2c(=O)n(C)c(=O)nc-2n(C)n1,"inconclusive: 5.62 µM [inhibitor, single point]"
16,CCCCn1c(=O)c(C(=O)NCc2ccncc2)c(O)c2ccccc21,"inconclusive: 35.5 µM [inhibitor, single point]"
17,Cc1cc(NC(=O)COC(=O)c2c(C)nn(Cc3ccccc3)c2Cl)no1,"inconclusive: 35.5 µM [inhibitor, single point]"
18,OC(c1ccncc1)(c1ccc(F)cc1)c1ccc(F)cc1,"inconclusive: 35.5 µM [activator, single point]"
19,Cc1cccc(CN2CCCC(C(=O)c3ccc4c(c3)OCO4)C2)n1 (configuration not stated),active: 3.16 µM

row,Structure (SMILES),Potency
1,N#CC(C#N)=Cc1ccc(C=C(C#N)C#N)cc1,"inconclusive: 35.5 µM [inhibitor, single point]"
2,COC(=O)CC(=O)c1ccc2c(c1)OCO2,"inconclusive: 0.0562 µM [activator, partial curve, poor fit]"
3,CCCCn1c(=O)c(C(=O)Nc2ncccc2C)c(O)c2ccccc21,"inconclusive: 12.6 µM [inhibitor, single point]"
4,CCCC(C)C1(CC)C(=O)NC(=Nc2ccc(F)cc2)NC1=O (configuration not stated),"inconclusive: 31.6 µM [activator, single point]"
5,C=CCn1c(C2CC2)n[nH]c1=S,"inconclusive: 15.8 µM [inhibitor, partial curve, poor fit]"
6,Cc1nnc2ccc(-c3cccc(C(F)(F)F)c3)nn12,inactive
7,CSc1ncc(CN2CCCC(C(=O)c3sccc3C)C2)cn1 (configuration not stated),inactive
8,Cc1ccc(N2C(=O)NC(=O)/C(=C/C=C/c3ccco3)C2=O)cc1,active: 12.6 µM
9,CC1CCC/C=C/C2CC(O)CC2C(O)/C=C/C(=O)O1 (configuration not stated),inactive
10,CC/C(=N\NC(=O)c1ccccc1Cl)c1c(O)n(C2CCCCC2)c(=O)[nH]c1=O,active: 7.94 µM
11,O=C(O)c1ccccc1NC(=O)C1C2CCC(O2)C1C(=O)O (configuration not stated),inactive
12,CN(C)C(=O)Oc1ccc(-c2cn3cc(Cl)ccc3n2)cc1,"inconclusive: 11.2 µM [inhibitor, partial curve]"
13,O=C1CCC[C@H]2[C@H]3CCCN4CCCC(=CN12)[C@@H]34,inactive
14,CCc1ccc(N2C(=O)NC(=O)C(Cc3ccc(OC)cc3OC)C2=O)cc1 (configuration not stated),inactive
15,N#Cc1ccccc1Cn1cc(C(=O)C2CC2)c2ccccc21,inactive
16,COC(=O)C1=CO[C@@H](C)[C@@H]2CN3CC[C@@]4(C(=O)Nc5ccccc54)[C@@H]3C[C@H]12,inactive
17,Cc1cc(C)cc(-n2c(C)cc(/C=C3\C(=O)NC(=O)N(C)C3=O)c2C)c1,inactive
18,O=c1c2ccccc2[nH]c(=S)n1-c1ccc2c(c1)OCO2,active: 2.82 µM
19,O=c1[nH]c(=O)n(CCC2=CCCCC2)c(O)c1C=Nc1cccc(F)c1,"inconclusive: 22.4 µM [activator, single point]"

row,Structure (SMILES),Potency
1,c1ccc(P(c2ccccc2)c2ccccn2)cc1,inactive
2,Cc1cc(-c2n[nH]c(=S)n2CC(C)C)cs1,active: 5.01 µM
3,C[C@@H]1O[C@@H](O[C@H]2CC[C@@H](O[C@H]3[C@H](O)C[C@H](c4ccc5c(c4O)C(=O)C4=C(C5=O)[C@@]5(O)C(=O)C[C@](C)(O[C@H]6CC[C@H](O[C@H]7C=CC(=O)[C@H](C)O7)[C@H](C)O6)C[C@@]5(O)C=C4)O[C@@H]3C)O[C@H]2C)C=CC1=O,active: 0.501 µM
4,O=c1[nH]c(=O)n(CCC2=CCCCC2)c(O)c1/C=N/Nc1ccccc1,"inconclusive: 14.1 µM [inhibitor, single point]"
5,O=C(Nc1ccc(Cl)c(Cl)c1)c1ccco1,"inconclusive: 20 µM [activator, single point]"
6,O=c1[nH]c(=S)[nH]c(O)c1N=Nc1ccc(SC(F)F)cc1,"inconclusive: 11.2 µM [inhibitor, partial curve]"
7,CCC(C)(C)O,inactive
8,Cc1cc(C=C2C(=O)NC(=S)NC2=O)c(C)n1-c1ccc2c(c1)OCO2,"inconclusive: 35.5 µM [inhibitor, single point]"
9,Nn1c(Cc2cccc3ccccc23)n[nH]c1=S,"inconclusive: 12.6 µM [inhibitor, single point]"
10,Cc1ccccc1OCCN=Cc1c(O)n(C)c(=O)n(C)c1=O,"inconclusive: 20 µM [activator, single point]"
11,COc1cccc(NP(=O)(Oc2ccccc2)Oc2ccccc2)c1,"inconclusive: 12.6 µM [activator, single point]"
12,COc1ccc(CN2CCN(C(=O)Cn3c(=O)oc4cc(Cl)ccc43)CC2)c(OC)c1OC,"inconclusive: 15.8 µM [activator, partial curve]"
13,CN(C)C(=S)SSC(=S)N(C)C,active: 1.12 µM and active: 355 nM and active: 112 nM
14,O=C1C=CC(=O)c2c1ccc1c2ccc2ccccc21,"inconclusive: 14.1 µM [inhibitor, single point]"
15,C=C(C)Cn1c(=O)n(CC2CS2)c2ccccc21 (configuration not stated),"inconclusive: 7.94 µM [activator, partial curve]"
16,COc1ccc2nc(NC(=O)CCc3nc(C4=CCN(C)CC4)no3)sc2c1,"inconclusive: 35.5 µM [activator, single point]"
17,COc1ccc(CCNC2CCCCC2)cc1OC,inactive
18,Cn1c(=O)c2c(nc(N/N=C/c3c(O)n(C4CCCCC4)c(=S)[nH]c3=O)n2C)n(C)c1=O,"inconclusive: 1.41 µM [inhibitor, partial curve]"
19,CN(C)c1ccc(N(C)C)cc1,"inconclusive: 35.5 µM [inhibitor, single point]"
